Measurements: the M2OR odorant receptor database
The entries are a selection whose mix differs from that of the whole data set. Calls are pooled over several reports, among them a noisy single-well screen. The list shows a part of the results.

The chains behind the UniProt entries cited, without tags or fusion partners. Where a name states a change or a piece, a line headed by the entry shows the natural chain unless it says otherwise.
UniProt Q8VG02: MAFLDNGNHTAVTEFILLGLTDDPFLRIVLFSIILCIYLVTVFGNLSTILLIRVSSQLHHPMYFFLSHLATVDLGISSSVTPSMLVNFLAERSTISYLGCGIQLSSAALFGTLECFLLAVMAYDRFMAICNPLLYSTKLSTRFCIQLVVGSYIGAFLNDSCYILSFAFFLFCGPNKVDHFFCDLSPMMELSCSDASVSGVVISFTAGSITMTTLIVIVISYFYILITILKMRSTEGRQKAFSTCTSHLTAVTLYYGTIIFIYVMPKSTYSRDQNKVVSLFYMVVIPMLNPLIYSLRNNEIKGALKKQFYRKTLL
UniProt Q60886: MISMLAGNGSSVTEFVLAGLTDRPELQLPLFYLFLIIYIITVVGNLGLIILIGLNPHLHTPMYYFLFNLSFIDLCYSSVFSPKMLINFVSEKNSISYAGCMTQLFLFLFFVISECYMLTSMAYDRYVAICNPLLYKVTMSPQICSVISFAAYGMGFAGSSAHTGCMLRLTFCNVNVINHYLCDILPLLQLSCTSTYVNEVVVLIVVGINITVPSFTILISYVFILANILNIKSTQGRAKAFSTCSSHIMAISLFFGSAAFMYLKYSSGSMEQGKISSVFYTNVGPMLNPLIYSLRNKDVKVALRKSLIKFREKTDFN

Key:
Details in all cases: stereoisomer not certain
[1] = target: Or5p64 (Mus musculus) (UniProt Q8VG02)
Procedure, shortened: (§1)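 Each entry records the cell line, G-protein, co-transfected protein and tags used. Methods varied with the source, often transient luciferase assays in mammalian cell lines. A receptor–molecule pair is called responsive (active) if the original authors judged its signal statistically different from baseline and non-responsive (inactive) otherwise.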

[2] = target: Or8b3 (Mus musculus) (UniProt Q60886)
Procedure, shortened: as §1

[3] = tested on: Q7TRX1 A108G A152G V205I
Procedure, shortened: as §1

[4] = tested on: Q7TRX1 A108G A152G
Procedure, shortened: as §1

[5] = tested on: Q7TRX1 A108G V205I
Procedure, shortened: as §1

[6] = tested on: Q7TRX1 A108G
Procedure, shortened: as §1

[7] = tested on: Q7TRX1 A152G V205I
Procedure, shortened: as §1

[8] = tested on: Q7TRX1 A152G
Procedure, shortened: as §1

Measured: odorant receptor agonist call

O=C1CCCCCCCCCCCCCCO1
inactive: [1]

CC(=O)c1ccccc1
inactive: [2]

C=C(C)C1CC=C(C)C(=O)C1 (centres undefined)
not listed: [1]
active: all other assays above
